{"source": "patent US20070149483A1", "about": "“Methods and compounds for modulating triglyceride and vldl secretion” (priority 2003, published 2007)", "system": "McA-RH7777 cells stably expressing human apoB100", "test": "[14C]oleate / [3H]EPA labelling and chase: distribution in PC, PE, TG and secretion", "assay_type": "cell-based, rat", "note": "No dose or concentration is given here for some results."}
{"smiles": "CCCCCCCC/C=C\\CCCCCCCC(=O)O", "note": "[[^14C]oleate, [^14C]oleic acid]", "values": [{"measurement": "total radioactivity incorporated at the end of 2-h labelling", "value": "2.4×10^6 cpm"}]}
